Source: patent US20220282271A1, “HERBICIDE RESISTANT PLANTS AND METHODS OF MAKING AND USING” (OFFICE OF INNOVATION ADVANCEMENT AND COMMERCIALIZATION, priority 2019, published 2022)
Some results were stated once for a whole list of compounds, not compound by compound. For at least one compound, name, drawing or mass did not settle the structure.

How the values were obtained:
[1] = target: T1, recombinant wild-type E. indica PPO1 (Eleusine indica, UniProt A0A6G5XNV7); assay: In vitro PPO enzyme activity inhibition, wild-type PPO1; type: biochemical; conditions: highest herbicide concentration 10^−5 M; listed as trifludimoxazin
T1 sequence (A0A6G5XNV7 1-529): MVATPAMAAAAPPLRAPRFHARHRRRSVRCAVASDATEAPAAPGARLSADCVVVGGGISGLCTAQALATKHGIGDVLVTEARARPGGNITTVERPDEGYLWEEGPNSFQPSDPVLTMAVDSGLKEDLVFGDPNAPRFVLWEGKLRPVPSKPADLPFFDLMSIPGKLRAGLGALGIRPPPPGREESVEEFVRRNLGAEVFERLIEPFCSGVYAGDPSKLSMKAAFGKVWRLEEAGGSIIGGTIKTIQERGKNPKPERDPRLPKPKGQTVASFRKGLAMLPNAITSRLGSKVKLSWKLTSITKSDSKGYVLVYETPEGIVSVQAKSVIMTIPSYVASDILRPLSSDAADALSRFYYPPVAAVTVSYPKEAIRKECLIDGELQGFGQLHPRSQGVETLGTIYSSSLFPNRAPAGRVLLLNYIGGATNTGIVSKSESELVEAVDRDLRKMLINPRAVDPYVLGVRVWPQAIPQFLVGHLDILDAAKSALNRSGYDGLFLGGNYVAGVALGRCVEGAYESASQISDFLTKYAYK
Description: Effects of A212T substitution were studied using the E. indica backbone. The wild-type E. indica PPO1 and the E. indica PPO1 A212T variants were synthesized de novo and subcloned into pRSetB plasmid (Invitrogen, Carlsbad, Calif.). The complete description of expression and purification of E. indica PPO1 and E. indica PPO1 A212T variant proteins were referenced to the method described for PPO2 by Rangani et al. (2019, Frontiers in Plant Sci., 10:568). […] Oxadiazon, sulfentrazone, saflufenacil and lactofen are from the class of oxadiazole, triazolinone, pyrimidinedione, and diphenyl ether, respectively. Flumioxazin and trifludimoxazin are from the same chemical family, N-phenylphthalimide. […] The assay was replicated twice.

[2] = target: recombinant variant E. indica PPO1 A212T (Eleusine indica, UniProt A0A6G5XNV7, A212T); assay: In vitro PPO enzyme activity inhibition, variant PPO1 A212T; type: biochemical; conditions: highest herbicide concentration 10^−5 M; listed as trifludimoxazin

`C#CCN1C(=O)C(F)(F)Oc2cc(F)c(-n3c(=O)n(C)c(=S)n(C)c3=O)cc21` [Trifludomoxazin, trifludimoxazin] was tested, and the “Wild-type E. indica PPO1 % inhibition” value [1] was “more than 90%” and the “Variant E. indica PPO1 A212T % inhibition” value [2] was “more than 90%”.
